No constants are given. Whether binding was seen depends on the method and setting. Binding can be weak; no strength is given. Tags and fused reporters may be left off the sequences shown. For some assays here: Binding seen in cells or lysates may run through a third protein. One block for each substance: values may come before it.
How the values were obtained:
[1] = target: T1, BD-IYO (Arabidopsis thaliana) (UniProt Q8GYU3); experiment: two-hybrid; reverse orientation: AD-GPN1 fusions (called preys) and BD-IYO (called bait) in yeast; growth on -LWAH
T1 sequence: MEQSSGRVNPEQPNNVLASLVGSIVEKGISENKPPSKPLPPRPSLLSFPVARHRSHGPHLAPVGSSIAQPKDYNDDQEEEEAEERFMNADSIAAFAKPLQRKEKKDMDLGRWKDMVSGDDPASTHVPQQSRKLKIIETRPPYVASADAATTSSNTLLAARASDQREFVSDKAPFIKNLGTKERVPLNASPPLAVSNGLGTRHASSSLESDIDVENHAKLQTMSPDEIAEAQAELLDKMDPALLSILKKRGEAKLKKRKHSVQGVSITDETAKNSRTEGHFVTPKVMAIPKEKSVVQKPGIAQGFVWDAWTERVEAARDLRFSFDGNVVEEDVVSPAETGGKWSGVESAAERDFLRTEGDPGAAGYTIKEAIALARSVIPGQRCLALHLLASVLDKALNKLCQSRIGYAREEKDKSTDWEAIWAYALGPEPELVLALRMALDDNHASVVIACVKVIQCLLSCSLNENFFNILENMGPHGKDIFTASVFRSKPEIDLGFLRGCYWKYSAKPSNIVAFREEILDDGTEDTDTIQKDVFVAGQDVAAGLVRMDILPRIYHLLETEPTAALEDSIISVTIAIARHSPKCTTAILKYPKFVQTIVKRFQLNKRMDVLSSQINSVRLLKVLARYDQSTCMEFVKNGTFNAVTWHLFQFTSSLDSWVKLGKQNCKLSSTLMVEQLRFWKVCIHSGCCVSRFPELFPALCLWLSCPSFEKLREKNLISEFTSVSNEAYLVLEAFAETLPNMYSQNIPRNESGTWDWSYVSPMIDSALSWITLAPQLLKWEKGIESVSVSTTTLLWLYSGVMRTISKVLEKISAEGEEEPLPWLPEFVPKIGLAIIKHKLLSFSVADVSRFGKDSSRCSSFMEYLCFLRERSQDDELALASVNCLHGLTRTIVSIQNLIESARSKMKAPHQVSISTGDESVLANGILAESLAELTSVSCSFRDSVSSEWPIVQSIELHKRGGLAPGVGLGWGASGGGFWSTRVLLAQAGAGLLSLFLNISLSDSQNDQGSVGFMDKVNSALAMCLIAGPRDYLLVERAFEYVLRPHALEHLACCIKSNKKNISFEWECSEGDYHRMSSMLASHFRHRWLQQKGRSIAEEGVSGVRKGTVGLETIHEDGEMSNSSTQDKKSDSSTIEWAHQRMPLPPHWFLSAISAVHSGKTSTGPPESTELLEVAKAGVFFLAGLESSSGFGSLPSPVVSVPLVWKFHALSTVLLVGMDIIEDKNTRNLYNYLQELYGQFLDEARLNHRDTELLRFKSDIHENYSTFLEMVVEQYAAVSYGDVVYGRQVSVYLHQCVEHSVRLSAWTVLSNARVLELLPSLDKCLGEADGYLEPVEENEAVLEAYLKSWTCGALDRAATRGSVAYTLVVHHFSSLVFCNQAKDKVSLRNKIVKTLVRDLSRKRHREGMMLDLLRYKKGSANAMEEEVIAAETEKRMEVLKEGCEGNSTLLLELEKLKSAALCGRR

The chains behind the UniProt entries cited, without tags or fusion partners. Where a name states a change or a piece, a line headed by the entry shows the natural chain unless it says otherwise.
UniProt Q8W586: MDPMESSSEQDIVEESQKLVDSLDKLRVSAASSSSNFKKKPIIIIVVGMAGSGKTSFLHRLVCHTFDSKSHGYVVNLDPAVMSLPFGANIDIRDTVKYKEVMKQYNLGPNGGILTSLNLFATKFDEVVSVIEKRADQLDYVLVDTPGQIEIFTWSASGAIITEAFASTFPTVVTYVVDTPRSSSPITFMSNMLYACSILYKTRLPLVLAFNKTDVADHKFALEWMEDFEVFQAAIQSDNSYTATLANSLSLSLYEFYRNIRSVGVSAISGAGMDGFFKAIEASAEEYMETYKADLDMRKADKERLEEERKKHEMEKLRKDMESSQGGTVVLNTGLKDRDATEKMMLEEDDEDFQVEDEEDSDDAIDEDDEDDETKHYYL
UniProt Q56XY2: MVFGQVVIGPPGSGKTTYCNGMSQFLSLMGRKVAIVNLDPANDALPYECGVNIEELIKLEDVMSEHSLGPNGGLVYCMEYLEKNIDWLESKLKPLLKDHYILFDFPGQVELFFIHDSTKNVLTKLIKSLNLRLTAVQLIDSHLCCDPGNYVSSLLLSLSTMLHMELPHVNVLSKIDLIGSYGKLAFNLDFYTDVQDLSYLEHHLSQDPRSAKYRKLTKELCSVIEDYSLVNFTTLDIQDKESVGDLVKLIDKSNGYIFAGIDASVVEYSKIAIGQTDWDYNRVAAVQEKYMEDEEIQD

[2] = target: T2, AD-IYO_(ATG209) (Arabidopsis thaliana) (UniProt Q8GYU3); experiment: two-hybrid; BD-GPN fusions (called preys) and AD-IYO fusions (called baits) co-transformed into S. cerevisiae AH109; growth on media lacking Ade, His, Leu and Trp (-LWAH)
T2 sequence: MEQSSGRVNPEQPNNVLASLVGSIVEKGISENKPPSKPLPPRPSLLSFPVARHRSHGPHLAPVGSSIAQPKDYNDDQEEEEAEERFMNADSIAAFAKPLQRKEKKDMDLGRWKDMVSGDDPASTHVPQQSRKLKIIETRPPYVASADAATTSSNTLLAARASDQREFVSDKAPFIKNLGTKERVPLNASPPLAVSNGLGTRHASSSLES

[3] = target: T3, AD-IYO_(NLSAB) (Arabidopsis thaliana) (UniProt Q8GYU3); experiment: as above
T3 sequence: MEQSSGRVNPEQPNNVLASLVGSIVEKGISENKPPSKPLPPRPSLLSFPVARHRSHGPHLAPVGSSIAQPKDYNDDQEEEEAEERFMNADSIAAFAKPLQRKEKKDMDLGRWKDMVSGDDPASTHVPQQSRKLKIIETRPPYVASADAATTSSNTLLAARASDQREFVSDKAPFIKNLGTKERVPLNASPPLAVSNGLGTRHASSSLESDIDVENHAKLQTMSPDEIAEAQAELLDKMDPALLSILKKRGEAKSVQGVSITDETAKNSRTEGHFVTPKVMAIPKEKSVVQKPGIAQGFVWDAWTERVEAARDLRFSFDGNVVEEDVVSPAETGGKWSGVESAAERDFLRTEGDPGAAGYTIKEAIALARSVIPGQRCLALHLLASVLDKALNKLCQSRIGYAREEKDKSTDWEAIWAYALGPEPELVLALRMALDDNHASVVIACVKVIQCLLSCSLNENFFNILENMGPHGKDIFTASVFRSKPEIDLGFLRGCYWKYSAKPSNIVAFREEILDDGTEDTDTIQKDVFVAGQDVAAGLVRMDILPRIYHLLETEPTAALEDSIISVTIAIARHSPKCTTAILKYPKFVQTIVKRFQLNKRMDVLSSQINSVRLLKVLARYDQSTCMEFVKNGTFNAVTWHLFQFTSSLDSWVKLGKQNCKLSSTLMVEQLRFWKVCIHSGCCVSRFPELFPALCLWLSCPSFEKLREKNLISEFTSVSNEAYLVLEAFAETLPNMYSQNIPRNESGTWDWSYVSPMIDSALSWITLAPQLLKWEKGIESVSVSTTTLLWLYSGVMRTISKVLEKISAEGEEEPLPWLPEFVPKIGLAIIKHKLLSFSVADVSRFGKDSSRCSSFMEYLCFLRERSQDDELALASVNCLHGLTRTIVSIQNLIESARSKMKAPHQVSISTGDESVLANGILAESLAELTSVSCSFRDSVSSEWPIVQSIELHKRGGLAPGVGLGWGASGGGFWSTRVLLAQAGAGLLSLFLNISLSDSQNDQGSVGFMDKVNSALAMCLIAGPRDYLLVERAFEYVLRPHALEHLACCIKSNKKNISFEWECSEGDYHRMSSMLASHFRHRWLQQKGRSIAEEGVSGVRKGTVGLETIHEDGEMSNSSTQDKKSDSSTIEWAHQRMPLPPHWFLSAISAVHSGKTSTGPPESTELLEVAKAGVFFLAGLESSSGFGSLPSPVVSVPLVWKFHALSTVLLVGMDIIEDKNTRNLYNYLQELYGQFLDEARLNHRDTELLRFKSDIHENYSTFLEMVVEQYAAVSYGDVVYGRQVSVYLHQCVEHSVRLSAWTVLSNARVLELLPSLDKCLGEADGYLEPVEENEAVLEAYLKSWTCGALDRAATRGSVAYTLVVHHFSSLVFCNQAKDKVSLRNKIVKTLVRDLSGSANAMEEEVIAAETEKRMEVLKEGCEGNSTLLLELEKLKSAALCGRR

[4] = target: T4, AD-IYO (Arabidopsis thaliana) (UniProt Q8GYU3); experiment: as above
T4 sequence: T1 sequence

[5] = target: T5, nYFP-IYO (Arabidopsis MINIYO fused to the N-terminal half of YFP) (Arabidopsis thaliana) (UniProt Q8GYU3); experiment: split reporter; BiFC: nYFP and cYFP fusions co-expressed transiently in N. benthamiana leaves; confocal microscopy two days after infiltration
T5 sequence: T1 sequence

[6] = target: T6, nYFP-IYO_(ATG500) (Arabidopsis thaliana) (UniProt Q8GYU3); experiment: as above
T6 sequence: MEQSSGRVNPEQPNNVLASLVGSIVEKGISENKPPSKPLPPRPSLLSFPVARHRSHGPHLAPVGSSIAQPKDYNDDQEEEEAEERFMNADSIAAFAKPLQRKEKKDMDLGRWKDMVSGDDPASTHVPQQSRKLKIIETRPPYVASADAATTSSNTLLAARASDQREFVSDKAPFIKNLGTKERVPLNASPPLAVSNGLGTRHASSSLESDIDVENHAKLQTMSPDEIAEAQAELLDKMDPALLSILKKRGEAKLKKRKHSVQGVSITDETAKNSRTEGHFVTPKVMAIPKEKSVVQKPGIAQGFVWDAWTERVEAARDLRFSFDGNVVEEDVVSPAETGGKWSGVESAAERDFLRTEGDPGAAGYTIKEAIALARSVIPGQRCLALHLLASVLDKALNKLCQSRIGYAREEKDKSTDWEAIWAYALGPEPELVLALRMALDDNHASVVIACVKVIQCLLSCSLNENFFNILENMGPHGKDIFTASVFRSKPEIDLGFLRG

[7] = target: T7, nYFP-IYO_(ΔNLSAB) (Arabidopsis thaliana) (UniProt Q8GYU3); experiment: as above
T7 sequence: T3 sequence

Substance: AD-GPN1_(mGPN) (from UniProt Q8W586)
binding [1]: binds

Substance: BD-GPN1 (from UniProt Q8W586)
binding [2]: binds
binding [3]: binds
binding [4]: binds

Substance: cYFP-GPN2 (from UniProt Q56XY2)
binding [5]: binds

Substance: cYFP-GPN1 (from UniProt Q8W586)
binding [6]: binds
binding [5]: binds
binding [7]: binds

More lines, now with the values ahead:

binding [1]: binds
Substance: AD-GPN1 (from UniProt Q8W586)

binding [5]: no binding
Substance: cYFP-GPN3 (Arabidopsis thaliana)

binding [4]: no binding
Substance: BD-GPN3 (Arabidopsis thaliana)
